From PMC11761162

T1: HA-mGBP2 fusion protein (murine guanylate binding protein 2) (mouse) (UniProt Q9Z0E6)
T1 sequence: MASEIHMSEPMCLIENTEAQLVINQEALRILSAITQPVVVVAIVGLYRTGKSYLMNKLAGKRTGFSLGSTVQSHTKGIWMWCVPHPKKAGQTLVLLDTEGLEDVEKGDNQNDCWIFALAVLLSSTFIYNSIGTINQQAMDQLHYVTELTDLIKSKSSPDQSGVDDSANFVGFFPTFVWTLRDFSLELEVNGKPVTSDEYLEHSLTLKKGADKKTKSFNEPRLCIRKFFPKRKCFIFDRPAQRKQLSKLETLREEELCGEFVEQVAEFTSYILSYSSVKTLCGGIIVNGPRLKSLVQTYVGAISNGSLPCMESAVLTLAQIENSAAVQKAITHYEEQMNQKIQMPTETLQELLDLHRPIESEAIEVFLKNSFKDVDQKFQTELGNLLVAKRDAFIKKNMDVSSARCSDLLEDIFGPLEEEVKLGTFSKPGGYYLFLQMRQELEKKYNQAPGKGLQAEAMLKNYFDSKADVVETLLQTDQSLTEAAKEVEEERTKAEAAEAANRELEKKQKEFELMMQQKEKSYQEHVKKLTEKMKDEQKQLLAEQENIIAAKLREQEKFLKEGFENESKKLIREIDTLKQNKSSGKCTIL

B1: mGBP1 (murine guanylate binding protein 1) (protein, UniProt Q01514 1-589)
chain: MASEIHMSEPMCLIENTEAQLVINQEALRILSAITQPVVVVAIVGLYRTGKSYLMNKLAGKRTGFSLGSTVQSHTKGIWMWCVPHPKKAGQTLVLLDTEGLEDVEKGDNQNDCWIFALAVLLSSTFIYNSIGTINQQAMDQLHYVTELTDLIKSKSSPDQSDVDNSANFVGFFPIFVWTLRDFSLDLEFDGESITPDEYLETSLALRKGTDENTKKFNMPRLCIRKFFPKRKCFIFDRPGDRKQLSKLEWIQEDQLNKEFVEQVAEFTSYIFSYSGVKTLSGGITVNGPRLKSLVQTYVSAICSGELPCMENAVLTLAQIENSAAVQKAITYYEEQMNQKIHMPTETLQELLDLHRTCEREAIEVFMKNSFKDVDQKFQEELGAQLEAKRDAFVKKNMDMSSAHCSDLLEGLFAHLEEEVKQGTFYKPGGYYLFLQRKQELEKKYIQTPGKGLQAEVMLRKYFESKEDLADTLLKMDQSLTEKEKQIEMERIKAEAAEAANRALAEMQKKHEMLMEQKEQSYQEHMKQLTEKMEQERKELMAEQQRIISLKLQEQERLLKQGFQNESLQLRQEIEKIKNMPPPRSCTIL
B2: mGBP5 (murine guanylate binding protein 5) (protein, UniProt Q8CFB4 1-590)
chain: MAPEIHMPEPLCLIGSTEGHLVTNQEALKILSAITQPVVVVAIVGLYRTGKSYLMNKLAGKEKGFSVGSTVQSHTKGIWMWCVPHPQKPDHTLVLLDTEGLGDVEKDDKKNDTQIFALAILLSSTFVYNTMNKIDQGAIDLLHNVTELTDLLRTRNSSDSNQTEGEGPADMSFFPDLVWTLRDFFLDLQANGHAITSDEYLENSLKLKQGSDERTQTFNLPRLCIQKFFPVKKCFVFDAPALGSKLSQLPTLSNEELNSDFVQDLSEFCSHIFTQSKTKTLPGGIQVNGPRLESLVLTYVDAINSGALPSIENTVVTLARRENSAAVQKAIGHYDQLMSEKVQLPTETLQELLDLHRTCEREAIEIFRKHSFKDEGEFFQKELESLLSAKQDEICKKNADASAALCSTLLGSIFKPLEQEVAQEFYHKPGGHKLFLQRMEQLKANYRQQPGKGTQAEEVLQTYLNAKETVSRTILQTDQVLTDKEIQSKAEQERAEAARLEAQRLEAIRIQEEQRKAEMERQHQEQLRQIALEKARVAQEQQWILKQRAQEEADRIKAEQEAQLRALQQQLQHMREMNHHRRHHHDCVIS

Molecular target: T1, HA-mGBP2 fusion protein (murine guanylate binding protein 2) (mouse)
Assay: affinity purification with mass spectrometry; anti-HA antibody (clone HA-7) agarose beads, o/n at 4°C, on lysate supernatants (NP-40 buffer) of mGBP2-/- MEFs reconstituted with HA-mGBP2; IFN-γ 16 h, uninfected or infected with T. gondii ME49 (MOI 50) 2 h; empty-vector cells as control; label-free quantitative LC-MS/MS

Row | Binder | binding
1 | B1 | binds
2 | B2 | binds

These are yes or no findings as the source states them, for the method shown. Binding seen in cells or lysates may run through a third protein. Here binding means that the protein was enriched with, or labelled near, the bait; the list need not be complete. Where a sequence is shown, tags or fusion partners need not be part of it.
